Results deposited as PubChem BioAssay AID1259405 (NCATS, 2018).
Assay: 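Knock-downs that lift recombinant protein yield in hamster ovary cells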 (primary screen). System: Chinese hamster CHO-K1 ovary cells with stable secreted eGFP expression. Knock-down reagent: single siRNA against mouse genes, 0.8 pmol siRNA per well (2 µl of 400 nM stock). Timing: 3 days. Measurement: 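Per-well intracellular GFP measured by laser scanning cytometry, plus viability from ATP luminescence, each relative to plate median of non-targeting control wells, in %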. Reading the numbers: GFP, % of control: higher = more GFP per well, higher productivity; viability (ATP), % of control: higher = more viable cells (more ATP). Active means: 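a knock-down is called active if GFP reaches 120% or more of non-targeting control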.
The deposit covers about 50,000 reagents; shown is a random part of them. About 4,000 of all reagents (8%) were called active. 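Mouse siRNA library applied to hamster cells; one well for each siRNA.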 A number with no mark means an inactive call. Reagents against one gene are numbered here. Reagent sequences are not shown.

no.	Target gene	reagent	GFP, % of control	viability (ATP), % of control
1	Zfp474 (GeneID 66758)	1	106	62.9
2	Zfp474 (GeneID 66758)	2	123 (active)	90.1
3	Zfp474 (GeneID 66758)	3	156 (active)	147
4	Dcc (GeneID 13176)	1	70.5	69.2
5	Dcc (GeneID 13176)	2	94.7	83
6	Fbxl12os (GeneID 66662)	1	56.8	43.4
7	Fbxl12os (GeneID 66662)	2	107	82.3
8	Fbxl12os (GeneID 66662)	3	105	94.3
9	Etfdh (GeneID 66841)	1	64.5	85.7
10	Etfdh (GeneID 66841)	2	68.6	73.9
11	Etfdh (GeneID 66841)	3	85.7	103
12	Prom2 (GeneID 192212)	1	76.9	86.7
13	Prom2 (GeneID 192212)	2	64.6	59.9
14	Prex1 (GeneID 277360)	1	74.1	65.2
15	Prex1 (GeneID 277360)	2	101	110
16	Prex1 (GeneID 277360)	3	58.5	36.1
17	Trav3-3 (GeneID 320898)	1	38.9	33.9
18	Trav3-3 (GeneID 320898)	2	82.7	119
19	Trav3-3 (GeneID 320898)	3	83.3	97.9
20	Dnpep (GeneID 13437)	1	71.8	107
21	Dnpep (GeneID 13437)	2	136 (active)	90.2
22	Adam17 (GeneID 11491)	1	71.7	70.9
23	Adam17 (GeneID 11491)	2	68.9	76.2
24	Adam17 (GeneID 11491)	3	102	84.8
25	Klk1b8 (GeneID 16624)	1	73.3	86.7
26	Klk1b8 (GeneID 16624)	2	75.8	55.9
27	Klk1b8 (GeneID 16624)	3	76.2	89.5
28	Arl6ip6 (GeneID 65103)	1	77.1	54.6
29	Arl6ip6 (GeneID 65103)	2	87.1	80.9
30	Arl6ip6 (GeneID 65103)	3	115	117
31	Zfp384 (GeneID 269800)	1	114	57.9
32	Zfp384 (GeneID 269800)	2	89.2	88.2
33	Or4a76 (GeneID 257984)	1	74.1	46.9
34	Or4a76 (GeneID 257984)	2	76.1	69.6
35	Or4a76 (GeneID 257984)	3	64.1	102
36	Nacc1 (GeneID 66830)	1	22.6	22.5
37	Nacc1 (GeneID 66830)	2	61.8	67
38	Nacc1 (GeneID 66830)	3	78	94.2
39	Ces2g (GeneID 72361)	1	99.7	124
40	Ces2g (GeneID 72361)	2	58.2	69.3
41	Ces2g (GeneID 72361)	3	43.7	57.9
42	Il17c (GeneID 234836)	1	55.1	69.3
43	Il17c (GeneID 234836)	2	67.4	68.7
44	Il17c (GeneID 234836)	3	90.7	54.4
45	Epn2 (GeneID 13855)	1	79.8	59.2
46	Epn2 (GeneID 13855)	2	65	38.5
47	Epn2 (GeneID 13855)	3	110	63.7
48	Gm527 (GeneID 217648)	1	71.7	89.3
49	Gm527 (GeneID 217648)	2	90.2	89
50	Gm527 (GeneID 217648)	3	85.8	74.1
51	Dlgap4 (GeneID 228836)	1	109	81.2
52	Dlgap4 (GeneID 228836)	2	82.6	86.3
53	Dlgap4 (GeneID 228836)	3	65.9	32.3
54	Jph3 (GeneID 57340)	1	41.4	64.6
55	Jph3 (GeneID 57340)	2	67.8	66.7
56	Jph3 (GeneID 57340)	3	92.2	34.6
57	Tesk1 (GeneID 21754)	1	104	77.7
58	Tesk1 (GeneID 21754)	2	72.6	74.9
59	Tesk1 (GeneID 21754)	3	145 (active)	61.7
60	Fam221b (GeneID 242408)	1	49.4	40.7
61	Fam221b (GeneID 242408)	2	32	33.6
62	Fam221b (GeneID 242408)	3	94.9	110
63	Tbc1d2 (GeneID 381605)	1	128 (active)	96.1
64	Tbc1d2 (GeneID 381605)	2	108	70.6
65	Tbc1d2 (GeneID 381605)	3	75.8	96.3
66	Gtf2f2 (GeneID 68705)	1	73.4	61.2
67	Gtf2f2 (GeneID 68705)	2	112	101
68	Mapk7 (GeneID 23939)	1	71.4	75.7
69	Cd8b1 (GeneID 12526)	1	105	81
70	Cd8b1 (GeneID 12526)	2	71	72.6
71	Cd8b1 (GeneID 12526)	3	94.1	96.6
72	Odf1 (GeneID 18285)	1	70	93.4
73	Odf1 (GeneID 18285)	2	85.6	82.1
74	Phgdh (GeneID 236539)	1	132 (active)	123
75	Phgdh (GeneID 236539)	2	78.8	71.7
76	Phgdh (GeneID 236539)	3	62.2	87.6
77	Ednra (GeneID 13617)	1	101	99.2
78	Ednra (GeneID 13617)	2	110	50
79	Ednra (GeneID 13617)	3	71.8	52.1
80	Slc8a1 (GeneID 20541)	1	107	73.6
81	Slc8a1 (GeneID 20541)	2	81.8	65.5
82	Slc8a1 (GeneID 20541)	3	79.1	86.6
83	Ttc1 (GeneID 66827)	1	65.3	82.8
84	Ttc1 (GeneID 66827)	2	61.4	67.5

Quoted from the entries so far (12 entries):
no.	Target gene	reagent	GFP, % of control	viability (ATP), % of control
46	Epn2 (GeneID 13855)	2	65	38.5
47	Epn2 (GeneID 13855)	3	110	63.7
48	Gm527 (GeneID 217648)	1	71.7	89.3
49	Gm527 (GeneID 217648)	2	90.2	89
50	Gm527 (GeneID 217648)	3	85.8	74.1
51	Dlgap4 (GeneID 228836)	1	109	81.2
52	Dlgap4 (GeneID 228836)	2	82.6	86.3
53	Dlgap4 (GeneID 228836)	3	65.9	32.3
54	Jph3 (GeneID 57340)	1	41.4	64.6
55	Jph3 (GeneID 57340)	2	67.8	66.7
56	Jph3 (GeneID 57340)	3	92.2	34.6
57	Tesk1 (GeneID 21754)	1	104	77.7
